# Experimental data taken from article PMC8269059, “Glycyrrhizin Derivatives Suppress Cancer Chemoresistance by Inhibiting Progesterone Receptor Membrane Component 1” (Cancers, 2021).
# Protein sequences, listed by entry. Tags and fused reporters are not part of them.
# UniProt O00264: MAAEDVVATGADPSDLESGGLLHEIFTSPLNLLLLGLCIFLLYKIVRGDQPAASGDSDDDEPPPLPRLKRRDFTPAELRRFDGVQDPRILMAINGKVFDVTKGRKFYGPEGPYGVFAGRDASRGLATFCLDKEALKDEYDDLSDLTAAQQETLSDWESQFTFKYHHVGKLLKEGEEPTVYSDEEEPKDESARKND
# These are yes or no findings as the source states them, for the method shown. In cells and extracts the contact can be indirect. Some entries that bind do so weakly or less than the wild type.
# Experiments:
# [1] = target: FLAG-tagged PGRMC1 (progesterone receptor membrane component 1), full-length (human) (UniProt O00264); assay: co-IP; FLAG-PGRMC1 transfected into HCT116 cells; NP40 lysis buffer (20 mM Tris-HCl pH 7.5, 150 mM NaCl, 1% NP40); anti-FLAG (M2) agarose, 60 min, room temperature; western blotting (anti-FLAG, anti-EGFR, anti-LDLR, anti-PGRMC1); cells treated overnight (12 h) with GL or GlucoGL, or for 48 h with vehicle, 250 uM SA and/or 10 uM hemin
# [2] = target: FLAG-tagged PGRMC1 (progesterone receptor membrane component 1), full-length (human) (UniProt O00264); assay: co-IP; FLAG-PGRMC1 transfected into HuH7 cells; NP40 lysis buffer; anti-FLAG (M2) agarose, 60 min, room temperature; western blotting; cells treated overnight with GL or GlucoGL
binding [1],binding [2],Substance
binds,binds,"EGF receptor (EGFR), endogenous (from UniProt P00533 25-1210)"
binds,,"low-density lipoprotein receptor (LDLR), endogenous (from UniProt P01130 22-860)"
